Results are given in words; binding and its absence hold for the method and conditions named. Binding seen in cells or lysates may run through a third protein. Some results given as binding are weak or reduced against the parent protein; the word gives no strength.
Target: T1, estrogen-related receptor γ (ERRγ) (UniProt P62508)
T1 sequence: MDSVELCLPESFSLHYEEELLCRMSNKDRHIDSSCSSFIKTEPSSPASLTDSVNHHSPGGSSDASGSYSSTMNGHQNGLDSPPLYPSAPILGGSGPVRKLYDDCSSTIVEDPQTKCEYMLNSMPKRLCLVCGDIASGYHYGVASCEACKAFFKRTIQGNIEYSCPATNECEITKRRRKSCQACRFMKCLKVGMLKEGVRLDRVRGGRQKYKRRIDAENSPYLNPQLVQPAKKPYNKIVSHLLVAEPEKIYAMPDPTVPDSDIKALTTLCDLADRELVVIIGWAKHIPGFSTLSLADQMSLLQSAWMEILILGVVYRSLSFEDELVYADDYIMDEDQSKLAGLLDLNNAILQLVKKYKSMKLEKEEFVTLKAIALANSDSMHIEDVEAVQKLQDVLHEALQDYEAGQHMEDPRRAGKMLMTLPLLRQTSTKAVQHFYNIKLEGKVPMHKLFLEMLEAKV
Assay: co-IP; HEK293T cells transfected with Sirt6 or mSirt6 together with p300 and ERRγ; lysates immunoprecipitated and blotted

The chains behind the UniProt entries cited, without tags or fusion partners.
UniProt Q8N6T7: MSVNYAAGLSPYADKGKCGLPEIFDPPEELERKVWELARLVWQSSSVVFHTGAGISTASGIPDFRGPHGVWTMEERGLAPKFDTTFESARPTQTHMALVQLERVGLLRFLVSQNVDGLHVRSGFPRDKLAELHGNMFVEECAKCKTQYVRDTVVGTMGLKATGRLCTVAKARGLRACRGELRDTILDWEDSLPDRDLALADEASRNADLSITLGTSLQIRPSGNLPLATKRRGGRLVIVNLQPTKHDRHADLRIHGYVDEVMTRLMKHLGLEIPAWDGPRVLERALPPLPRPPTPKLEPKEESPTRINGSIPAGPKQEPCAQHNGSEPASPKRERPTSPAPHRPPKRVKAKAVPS

binding: binds
Substance: Sirt6 (from UniProt Q8N6T7 1-355) (enzyme)
